{
  "source": "patent US6930092B1",
  "about": "“Antibiotic agents” (priority 1999, dated 2005)",
  "origin": "cited, not measured here",
  "conditions": "cited from earlier work",
  "note": "For at least one compound, name, drawing or mass did not settle the structure.",
  "data": [
    {"smiles": "CC[C@H]1OC(=O)[C@H](C)[C@@H](O[C@H]2C[C@@](C)(OC)[C@@H](O)[C@H](C)O2)[C@H](C)[C@@H](O[C@@H]2O[C@H](C)C[C@H](N(C)C)[C@H]2O)[C@](C)(O)C[C@@H](C)C(=O)[C@H](C)[C@@H](O)[C@]1(C)O", "note": "[erythromycin A]", "values": [
      {"measurement": "acid sensitivity", "result": "extremely acid sensitive"}
    ]}
  ]
}
